Experimental data reported in PMC13156305.
These are yes or no findings as the source states them, for the method shown. In cells and extracts the contact can be indirect. Some entries that bind do so weakly or less than the wild type. For part of these data: Sequences can lack the tags named with a protein.

Protein sequences, listed by entry. Tags and fused reporters are not part of them.
UniProt Q9Y4R8: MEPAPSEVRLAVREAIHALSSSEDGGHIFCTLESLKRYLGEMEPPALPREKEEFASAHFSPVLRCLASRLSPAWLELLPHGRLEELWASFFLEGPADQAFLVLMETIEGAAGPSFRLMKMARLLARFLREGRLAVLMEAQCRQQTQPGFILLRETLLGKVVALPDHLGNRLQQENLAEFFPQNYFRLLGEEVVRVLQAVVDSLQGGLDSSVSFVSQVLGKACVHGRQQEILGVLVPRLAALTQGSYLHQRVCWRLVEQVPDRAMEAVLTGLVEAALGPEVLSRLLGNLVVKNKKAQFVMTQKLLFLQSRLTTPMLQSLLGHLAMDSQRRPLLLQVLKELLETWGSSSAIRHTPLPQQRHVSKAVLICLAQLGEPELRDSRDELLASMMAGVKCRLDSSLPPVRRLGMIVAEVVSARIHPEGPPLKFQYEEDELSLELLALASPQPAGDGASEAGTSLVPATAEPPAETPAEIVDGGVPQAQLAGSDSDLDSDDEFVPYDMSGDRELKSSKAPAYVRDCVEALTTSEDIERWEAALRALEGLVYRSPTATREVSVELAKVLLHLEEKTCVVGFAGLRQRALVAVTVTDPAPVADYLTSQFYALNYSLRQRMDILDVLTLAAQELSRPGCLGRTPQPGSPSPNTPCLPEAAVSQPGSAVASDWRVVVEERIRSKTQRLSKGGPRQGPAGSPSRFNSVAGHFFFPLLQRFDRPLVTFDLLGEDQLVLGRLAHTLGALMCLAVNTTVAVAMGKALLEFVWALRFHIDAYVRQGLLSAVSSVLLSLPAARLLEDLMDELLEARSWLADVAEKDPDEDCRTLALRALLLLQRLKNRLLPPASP
UniProt Q15386: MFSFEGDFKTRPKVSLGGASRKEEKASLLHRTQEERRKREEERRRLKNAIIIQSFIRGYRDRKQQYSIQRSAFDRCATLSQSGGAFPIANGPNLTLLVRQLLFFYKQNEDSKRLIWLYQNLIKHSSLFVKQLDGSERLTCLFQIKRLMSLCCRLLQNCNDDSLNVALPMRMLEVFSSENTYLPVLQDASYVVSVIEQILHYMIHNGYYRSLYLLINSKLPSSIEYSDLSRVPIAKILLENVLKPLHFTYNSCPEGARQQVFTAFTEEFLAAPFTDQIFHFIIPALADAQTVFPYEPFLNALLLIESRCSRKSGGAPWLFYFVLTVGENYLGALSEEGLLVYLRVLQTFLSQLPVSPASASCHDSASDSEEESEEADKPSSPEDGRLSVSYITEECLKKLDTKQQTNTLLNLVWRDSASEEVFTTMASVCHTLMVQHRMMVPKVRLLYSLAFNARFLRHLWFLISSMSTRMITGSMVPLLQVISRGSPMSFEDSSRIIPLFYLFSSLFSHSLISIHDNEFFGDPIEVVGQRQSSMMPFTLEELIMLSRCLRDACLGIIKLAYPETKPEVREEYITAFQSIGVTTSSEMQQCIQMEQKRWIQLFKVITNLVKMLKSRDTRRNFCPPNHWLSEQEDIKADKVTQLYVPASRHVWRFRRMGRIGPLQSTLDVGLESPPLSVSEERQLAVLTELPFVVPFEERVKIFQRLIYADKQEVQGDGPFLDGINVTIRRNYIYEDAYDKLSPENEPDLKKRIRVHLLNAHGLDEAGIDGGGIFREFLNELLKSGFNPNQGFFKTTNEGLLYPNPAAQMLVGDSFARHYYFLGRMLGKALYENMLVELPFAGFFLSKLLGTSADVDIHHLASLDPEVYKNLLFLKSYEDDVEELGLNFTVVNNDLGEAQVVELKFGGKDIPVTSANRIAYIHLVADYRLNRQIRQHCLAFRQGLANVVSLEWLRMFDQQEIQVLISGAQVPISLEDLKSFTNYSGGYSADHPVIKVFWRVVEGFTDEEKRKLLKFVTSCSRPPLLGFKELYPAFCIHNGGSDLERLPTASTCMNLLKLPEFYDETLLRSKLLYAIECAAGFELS

Columns and labels:
[1] = molecular target: T1, Src-Like Adaptor Protein (SLAP), expressed in HEK293T cells (UniProt Q60898); assay: co-IP; SLAP and each single component of the complex expressed in HEK293T cells; the method is not named for this experiment
T1 sequence: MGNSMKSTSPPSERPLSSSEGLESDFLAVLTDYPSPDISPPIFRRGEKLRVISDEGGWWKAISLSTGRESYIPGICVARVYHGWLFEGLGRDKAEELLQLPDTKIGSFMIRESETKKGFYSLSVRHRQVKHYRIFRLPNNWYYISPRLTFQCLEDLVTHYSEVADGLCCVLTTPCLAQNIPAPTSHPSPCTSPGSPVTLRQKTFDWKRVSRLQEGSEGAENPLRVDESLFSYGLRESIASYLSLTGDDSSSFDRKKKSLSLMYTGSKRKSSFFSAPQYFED

[2] = molecular target: mLST8-HA wild type, expressed in HT29 cells (human) (UniProt Q9BVC4); assay: co-IP; HT29 cells transduced with mLST8-HA proteins, with or without SLAP overexpression; endogenous RICTOR or UBE3C
[3] = molecular target: T2, Src-Like Adaptor Protein (SLAP)-Flag, overexpressed in CRC cells (UniProt Q60898); assay: co-IP; lysates of HT29 and SW620 cells overexpressing SLAP-Flag (or its mutants), endogenous partners detected by WB; also after siRNA against LST8 or depletion of TELO2
T2 sequence: T1 sequence

Substance | binding [1] | binding [2] | binding [3]
TELO2, expressed in HEK293T cells (from UniProt Q9Y4R8 1-837) | binds |  | 
E3 ubiquitin ligase UBE3C, endogenous in CRC cells (from UniProt Q15386 1-1083) (enzyme) |  | binds | binds
